In PMC10615203, “The 14-3-3 protein OsGF14f interacts with OsbZIP23 and enhances its activity to confer osmotic stress tolerance in rice” one finds binding data, which are given here for four molecules.

For experiment [1], the target named is T1, OsbZIP23-GFP (rice (Oryza sativa)) (UniProt Q6Z312).
T1 sequence: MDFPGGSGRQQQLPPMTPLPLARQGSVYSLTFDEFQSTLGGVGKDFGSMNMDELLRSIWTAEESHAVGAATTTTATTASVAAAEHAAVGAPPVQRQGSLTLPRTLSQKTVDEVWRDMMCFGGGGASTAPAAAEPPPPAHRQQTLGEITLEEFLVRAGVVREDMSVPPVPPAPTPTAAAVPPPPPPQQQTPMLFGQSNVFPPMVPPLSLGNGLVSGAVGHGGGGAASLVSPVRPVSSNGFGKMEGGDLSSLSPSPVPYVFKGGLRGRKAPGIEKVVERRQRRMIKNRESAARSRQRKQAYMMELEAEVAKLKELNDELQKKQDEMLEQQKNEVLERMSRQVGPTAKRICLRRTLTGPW
Put plainly: co-IP; GFP or OsbZIP23-GFP coexpressed with OsGF14f-6HA in N. benthamiana leaves; extracts in Co-IP buffer (50 mM Tris-HCl pH 8.0, 150 mM NaCl, 1 mM EDTA, 0.5% Triton X-100, 1 mM DTT) incubated with GFP-Trap magnetic beads 3 h at 4 °C; blots with anti-GFP and anti-HA.

Experiment [2] deals with G-BOX FACTOR 14-3-3f (14-3-3 protein OsGF14f), bait in pGBKT7 (rice (Oryza sativa)). Put plainly: two-hybrid; targeted assay: bait pGBKT7-OsGF14f and prey pGADT7 constructs cotransformed into yeast AH109; growth in 10-, 100- and 1000-fold dilutions on SD lacking Leu, Trp, Ade and His, 30 °C.
The target in experiment [3] is cLUC-OsGF14f (rice (Oryza sativa)). The experiment is described as follows: split reporter; firefly luciferase complementation imaging (LCI) in N. benthamiana leaves, 3 d after infiltration; also with 10 µM ABA for 4 h before imaging (signal enhanced).

These are yes or no findings as the source states them, for the method shown. Binding can be weak; no strength is given. For some of these results: Binding seen in cells or lysates may run through a third protein. For some of these results: Sequences can lack the tags named with a protein.

On to OsGF14f-6HA (rice (Oryza sativa)), for which, in experiment [1], the binding result is reported as “binds”.

B1: BASIC LEUCINE ZIPPER 23 (OsbZIP23), full length in the prey vector pGADT7 (protein, UniProt Q6Z312 1-357)
chain: T1 sequence
Consider B1, for which, in experiment [2], the binding entry is listed as “binds”.

B2: OsbZIP23-nLUC (protein, UniProt Q6Z312 1-357)
chain: T1 sequence
B2: the binding entry in experiment [3] is “binds”.

B3: basic leucine zipper 46 (OsbZIP46) in pGADT7 (protein, UniProt Q69TW5 1-324)
chain: MELPADGSALARQGSIYSLTFDEFQSALGSAEKDFGSMNMDELLRNIWTAEESQAIAPAAAAASAAAVVGDAQQQQQPIQRQGSLTLPRTLSQKTVDEVWRDIMGLGGSDDEDPAAAAAAAAPAQRQPTLGEMTLEEFLVRAGVVREDMGQTIVLPPQAQALFPGSNVVAPAMQLANGMLPGVVGVAPGAAAAMTVAAPATPVVLNGLGKVEGGDLSSLSPVPYPFDTALRVRKGPTVEKVVERRQRRMIKNRESAARSRARKQAYIMELEAEVAKLKEQKAELQKKQVEMIQKQNDEVMERITQQLGPKAKRFCLRRTLTGPC
In the case of B3, in experiment [2], the binding result is reported as “binds”.
